We go through 42 sequences from PMC7819943, “Rice protein-binding microarrays: a tool to detect cis-acting elements near promoter regions in rice”.

The chains behind the UniProt entries cited, without tags or fusion partners.
UniProt Q0JBA9, entry or part of it: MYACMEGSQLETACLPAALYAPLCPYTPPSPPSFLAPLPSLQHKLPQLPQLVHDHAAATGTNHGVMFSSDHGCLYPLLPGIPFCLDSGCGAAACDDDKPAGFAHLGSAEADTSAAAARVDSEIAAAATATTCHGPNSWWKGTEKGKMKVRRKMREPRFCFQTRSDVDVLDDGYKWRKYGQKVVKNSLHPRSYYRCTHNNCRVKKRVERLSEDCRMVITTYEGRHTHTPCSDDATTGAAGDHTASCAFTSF

This is one part of the list.

The target in the experiment is OsWRKY34 (Oryza sativa, UniProt Q0JBA9 1-250). The experiment is described as follows: protein-binding microarray (RPBM); PBS, 2% BSA, 51.3 ng/ul salmon testes DNA, 50 uM zinc acetate, 200 nM TF, 25 C, 1 h; high values mean tight binding. Conditions: protein: recombinant; tags: N-terminal polyhistidine and DsRed monomer fusion (pET32a); label: CyDye5-dUTP incorporated in the synthesized complementary strand; 3' TTTTT single-stranded linker to array surface; dsDNA, one strand shown. In short, it runs like this:
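Polyhistidine-tagged DsRed fusions of transcription factors, joined at the N-terminus, were expressed in E. coli BL21-CodonPlus and isolated on Ni–NTA. They were incubated at 200 nM for 1 h at 25 °C on a custom Agilent array, double-stranded and BSA-blocked, in PBS with 2% BSA, salmon testes DNA and 50 µM zinc acetate. The binding signal is per-feature fluorescence intensity (arbitrary units) read on an Axon 4000B scanner after washing.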
As to “ACACTCTCTGATCCCGCTCTCTCTCTCTGCTTCGATTCGACGGAGTCACCTAGTGCAG”, the binding signal was 11300 fluorescence intensity (a.u.). The same measure for “TGATGGCGCTGCCGAACCTCCGGTACTTCATTGACGCGACCGGAGTCACCTAGTGCAG”: 8090 fluorescence intensity (a.u.); for “GTACTCCCTCCGTTTCGAAATATTTAACACCGTTGACTTTCGGAGTCACCTAGTGCAG”: 17400 fluorescence intensity (a.u.).

Consider “TGTTCTCTCCTGCCTCCACACTTTCTGGCACGGTACAAAACGGAGTCACCTAGTGCAG”, for which the binding signal was 8370 fluorescence intensity (a.u.). As for “CATTCACAACATCAAATTACATCTGCAGAGAGATCGCTCGCGGAGTCACCTAGTGCAG”, the binding signal is 33900 fluorescence intensity (a.u.). The same measure for “CAAGAACTCACCCTTCTAGCTTCTGTTCGGCCCATCTGGACGGAGTCACCTAGTGCAG”: 9800 fluorescence intensity (a.u.); for “TCCCGATCCTGTCGTTCAGGTGATCCCGTATTCAAGTCATCGGAGTCACCTAGTGCAG”: 9150 fluorescence intensity (a.u.). Regarding “CCGTTGTATGTCACCAAAATTCGAATATATTTCCTTGCAACGGAGTCACCTAGTGCAG”, the binding signal was 8670 fluorescence intensity (a.u.). Take “GGAACTGACCTACCGTAGACACCCTCTTGACCTGCCCGGTCGGAGTCACCTAGTGCAG”: the binding signal was 8950 fluorescence intensity (a.u.).

Take “TTCTCCCTACTTATATTATTCCCTCTAATTACATAACGTTCGGAGTCACCTAGTGCAG”: the binding signal was 8630 fluorescence intensity (a.u.). Regarding “ACTTCCTTTGTTTCCTTAAGATAATCTGTAAATGCTCGTTCGGAGTCACCTAGTGCAG”, the binding signal was 10200 fluorescence intensity (a.u.).

“TATCTTATTCGCGTAACTATTTTTTCCTCAGTTTGAAGGACGGAGTCACCTAGTGCAG”: the binding signal was 8870 fluorescence intensity (a.u.).

In the case of “TTCTTTTTTCTTTTTTTTTACTGGTGAGAGCAATAGATTACGGAGTCACCTAGTGCAG”, the binding signal was 8560 fluorescence intensity (a.u.). The same measure for “GGTTGTAGGTGGAGGAGGAGGAGGGGCGGTTCCGGAGTTTCGGAGTCACCTAGTGCAG”: 22600 fluorescence intensity (a.u.); for “CAAGCTCCGTTTCGTCTTCGTCTTCGTCTACCTCTGTCATCGGAGTCACCTAGTGCAG”: 11100 fluorescence intensity (a.u.). For “CCAGCCGCATACACGCCGGTGTGCCCATTTTGTCAACGCGCGGAGTCACCTAGTGCAG”, the binding signal was 10200 fluorescence intensity (a.u.). In the case of “GGCTATACTATTAAACTTGCTCTACTACCATCCATTTATACGGAGTCACCTAGTGCAG” it was 8850 fluorescence intensity (a.u.). In the case of “AAATTTGACCGCTCTATTTATAGTTAAATTTGTTATTTTTCGGAGTCACCTAGTGCAG” it was 9220 fluorescence intensity (a.u.); in that of “TCTGTCTATCTATCTATCTATCTATATATATATATATATACGGAGTCACCTAGTGCAG”, 9350 fluorescence intensity (a.u.); in that of “TTTCTGGTTGAGGGGTACAAATTAGATTCGTTTTACATTTCGGAGTCACCTAGTGCAG”, 8380 fluorescence intensity (a.u.).

As to “ACTACCACTAGGATTGTACACACTGTCATGTCCTGTGCACCGGAGTCACCTAGTGCAG”, the binding signal was 8470 fluorescence intensity (a.u.).

Take “TATCAAGTGACCTAGCGTTCTTGCTGTCGGCTGCCTCATTCGGAGTCACCTAGTGCAG”: the binding signal was 9460 fluorescence intensity (a.u.). With “AGTTTGTTCTTGAATATTTTTACACACATACCCATATTTCCGGAGTCACCTAGTGCAG”, the binding signal is 9750 fluorescence intensity (a.u.). For the sequence “AATCCTAACTTCTATACCAATTTACCTACTAGTCGCCATGCGGAGTCACCTAGTGCAG”, the binding signal is 9470 fluorescence intensity (a.u.).

As for “TCATTGCCTAGTTGCCTCTTGTCTCATCTCTCATCTCTCACGGAGTCACCTAGTGCAG”, the binding signal is 8340 fluorescence intensity (a.u.).

As for “ACCAACGCCACCCGAAGCTTCGGCCCCTGTCTAAACTCCGCGGAGTCACCTAGTGCAG”, the binding signal was 9610 fluorescence intensity (a.u.). Take “TCTATTCCTGTCAGAATCCTGTGTTTTTTCTATTCCTCTGCGGAGTCACCTAGTGCAG”: the binding signal is 10900 fluorescence intensity (a.u.). Consider “CTCCGATTCTCTTTCACAAATTTTAACCATCATTTTTTTTCGGAGTCACCTAGTGCAG”, for which the binding signal is 11600 fluorescence intensity (a.u.). On to “GTTTCTTATAATATGTTCTATAGGCCAACATTTCTGCTTTCGGAGTCACCTAGTGCAG”, for which the binding signal was 10300 fluorescence intensity (a.u.). On to “TCCCAAATCTCGTCCTTTTCCATTTTCGACACAATTTTACCGGAGTCACCTAGTGCAG”, for which the binding signal was 11700 fluorescence intensity (a.u.). With “TTCCATTGTATATTCTGTGGTCGGTCGGTACTCAGTTCTTCGGAGTCACCTAGTGCAG”, the binding signal was 8760 fluorescence intensity (a.u.).

For “TCCCGCGTGTTGTGCTGTGCTGTGCTGGTACTACTCCTTACGGAGTCACCTAGTGCAG”, the binding signal is 10400 fluorescence intensity (a.u.). In the case of “CTTTGACTTAATATAACCACCACATTTGCCTTTTGACTTTCGGAGTCACCTAGTGCAG”, the binding signal was 8540 fluorescence intensity (a.u.). For the sequence “ATGTGGATGGAGTGGGGTTCGAGGGTCATGTCTTGGTCGCCGGAGTCACCTAGTGCAG”, the binding signal was 8710 fluorescence intensity (a.u.). Consider “GCCTCACTCCTTCGCGCCTTCGCCTCCCTACCGCGTGCTACGGAGTCACCTAGTGCAG”, for which the binding signal is 10500 fluorescence intensity (a.u.).

Turning to “CACATCAAACCTTTCATACCCACACAATATTTTTATCATACGGAGTCACCTAGTGCAG”, the binding signal is 8580 fluorescence intensity (a.u.). Take “ACCTGTTCCTTCTATTCTTTTCCTGTGAAAAAATTTTCCTCGGAGTCACCTAGTGCAG”: the binding signal was 10700 fluorescence intensity (a.u.). The same measure for “ACATCCATCCACTTTTAGGTCTCGTGCGCTACCCCTTTTTCGGAGTCACCTAGTGCAG”: 10500 fluorescence intensity (a.u.).

With “CTTCTCGCGCACACTAACCAATCCGAGCATCTCGCCTCGCCGGAGTCACCTAGTGCAG”, the binding signal was 9020 fluorescence intensity (a.u.). “TTCTTTTTTTGGCTTCCTTTTTTTTGTGTGTATATATGTACGGAGTCACCTAGTGCAG”: the binding signal is 13700 fluorescence intensity (a.u.). Consider “GGTCGTCGTCTTTGCATTGTCTCCTTGTCCGGTACGTTGGCGGAGTCACCTAGTGCAG”, for which the binding signal was 9400 fluorescence intensity (a.u.). As for “GCTTTCCTTCCGTCCGATCGCTTTGCCTTCGCTCATAGCACGGAGTCACCTAGTGCAG”, the binding signal was 8860 fluorescence intensity (a.u.).
